From paper PMC6828733 come the findings set out here.

Protein sequences, listed by entry. Tags and fused reporters are not part of them. Lines headed by an entry give the natural chain unless they say otherwise; changes in a name come on top.
UniProt Q12772: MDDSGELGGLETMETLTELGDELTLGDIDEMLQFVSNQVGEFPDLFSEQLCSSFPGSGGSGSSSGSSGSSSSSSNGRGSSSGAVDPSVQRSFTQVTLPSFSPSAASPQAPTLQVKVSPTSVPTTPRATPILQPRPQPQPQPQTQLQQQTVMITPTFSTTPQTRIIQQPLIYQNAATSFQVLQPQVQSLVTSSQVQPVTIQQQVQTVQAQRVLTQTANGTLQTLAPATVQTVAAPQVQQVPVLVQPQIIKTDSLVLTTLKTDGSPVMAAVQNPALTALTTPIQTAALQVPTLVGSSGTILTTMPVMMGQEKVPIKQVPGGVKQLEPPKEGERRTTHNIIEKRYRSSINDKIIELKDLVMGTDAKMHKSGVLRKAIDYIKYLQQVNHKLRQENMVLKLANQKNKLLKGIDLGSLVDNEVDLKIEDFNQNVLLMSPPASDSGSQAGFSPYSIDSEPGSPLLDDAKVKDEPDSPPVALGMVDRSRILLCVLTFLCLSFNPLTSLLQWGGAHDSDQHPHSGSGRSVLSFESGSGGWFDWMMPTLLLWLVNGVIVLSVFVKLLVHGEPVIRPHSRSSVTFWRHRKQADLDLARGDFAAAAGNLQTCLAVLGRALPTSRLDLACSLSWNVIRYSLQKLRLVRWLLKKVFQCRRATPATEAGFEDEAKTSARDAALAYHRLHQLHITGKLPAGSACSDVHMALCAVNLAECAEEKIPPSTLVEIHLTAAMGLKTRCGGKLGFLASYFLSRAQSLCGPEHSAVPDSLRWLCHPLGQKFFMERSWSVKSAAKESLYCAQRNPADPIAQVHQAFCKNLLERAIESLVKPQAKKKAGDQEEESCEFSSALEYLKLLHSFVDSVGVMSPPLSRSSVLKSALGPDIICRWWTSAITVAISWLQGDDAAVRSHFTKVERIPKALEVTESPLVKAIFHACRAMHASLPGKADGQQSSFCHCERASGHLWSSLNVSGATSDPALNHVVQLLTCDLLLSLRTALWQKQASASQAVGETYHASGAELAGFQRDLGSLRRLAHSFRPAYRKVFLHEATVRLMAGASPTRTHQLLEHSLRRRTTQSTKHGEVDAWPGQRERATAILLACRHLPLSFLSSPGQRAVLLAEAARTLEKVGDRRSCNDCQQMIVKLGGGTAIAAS

These are yes or no findings as the source states them, for the method shown. In cells and extracts the contact can be indirect. A result given as binding can be weak or reduced; the word gives no strength. For some of these results: Tags and fused reporters may be left off the sequences shown.

Assay [1] addresses T1, ASPP2 (endogenous, HCC-LM3 cells) (human (endogenous in HCC-LM3)) (UniProt Q13625).
T1 sequence: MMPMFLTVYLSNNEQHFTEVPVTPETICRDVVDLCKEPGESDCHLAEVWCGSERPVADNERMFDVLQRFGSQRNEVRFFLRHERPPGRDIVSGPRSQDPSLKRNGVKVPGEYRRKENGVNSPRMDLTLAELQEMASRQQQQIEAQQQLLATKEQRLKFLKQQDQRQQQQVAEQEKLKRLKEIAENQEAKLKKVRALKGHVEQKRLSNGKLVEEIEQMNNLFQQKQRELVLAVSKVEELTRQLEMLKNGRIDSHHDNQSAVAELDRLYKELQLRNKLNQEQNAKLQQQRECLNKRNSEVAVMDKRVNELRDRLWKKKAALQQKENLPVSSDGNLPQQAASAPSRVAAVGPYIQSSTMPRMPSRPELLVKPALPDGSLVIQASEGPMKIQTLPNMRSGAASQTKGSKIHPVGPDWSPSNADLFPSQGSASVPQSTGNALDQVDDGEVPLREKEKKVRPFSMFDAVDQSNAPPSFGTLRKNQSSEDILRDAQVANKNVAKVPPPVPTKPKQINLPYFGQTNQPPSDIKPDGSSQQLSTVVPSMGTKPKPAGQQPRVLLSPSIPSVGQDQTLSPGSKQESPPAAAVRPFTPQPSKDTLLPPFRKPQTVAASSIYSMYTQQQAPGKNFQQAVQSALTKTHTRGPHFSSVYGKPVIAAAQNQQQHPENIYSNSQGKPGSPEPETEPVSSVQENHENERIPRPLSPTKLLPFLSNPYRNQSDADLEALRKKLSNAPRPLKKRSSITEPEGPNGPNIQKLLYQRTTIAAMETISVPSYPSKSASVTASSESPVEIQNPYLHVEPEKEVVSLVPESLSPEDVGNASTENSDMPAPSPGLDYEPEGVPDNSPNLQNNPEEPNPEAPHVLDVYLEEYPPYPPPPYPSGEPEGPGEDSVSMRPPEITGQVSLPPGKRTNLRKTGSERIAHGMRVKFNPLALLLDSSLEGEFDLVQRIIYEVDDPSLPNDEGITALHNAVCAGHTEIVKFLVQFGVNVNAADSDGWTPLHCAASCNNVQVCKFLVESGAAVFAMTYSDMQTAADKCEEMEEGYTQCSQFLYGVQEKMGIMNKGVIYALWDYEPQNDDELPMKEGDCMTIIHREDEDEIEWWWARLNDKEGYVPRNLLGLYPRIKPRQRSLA
Briefly: co-IP; endogenous proteins, HCC-LM3 total cell lysate (50 mM Tris HCl, 150 mM NaCl, 0.1% SDS, 1% NP-40, 0.5% sodium deoxycholate); IP with anti-ASPP2 overnight, protein A/G agarose, Western blot; also cells with ASPP2 depleted (interaction greatly reduced). For orientation: Immunoblotting shows a protein as a band on a membrane.

In assay [2] the target is T1, ASPP2 (endogenous, HCC-LM3 cells) (human (endogenous in HCC-LM3)). As to the kind of experiment: co-IP; endogenous proteins, nuclear proteins of HCC-LM3 isolated with the Nuclear Complex Co-IP Kit (Active Motif), diluted in lysis buffer; IP with anti-ASPP2 overnight, protein A/G agarose, Western blot.
Assay [3] concerns the target HA-tagged SREBP-2. Briefly: co-IP; V5-tagged ASPP2 and HA-SREBP-2 co-transfected into HEK293T, nuclear proteins isolated with the Nuclear Complex Co-IP Kit (Active Motif); IP with anti-V5 or with anti-HA antibody, protein A/G agarose, Western blot.
In assay [4] the target is HA-tagged SREBP-2. Briefly: co-IP; V5-tagged ASPP2 and HA-SREBP-2 co-transfected into HEK293T, total cell lysate; IP with anti-V5 or with anti-HA antibody, protein A/G agarose, Western blot.

“SREBP-2 (sterol regulated element binding protein-2; endogenous, HCC-LM3 cells) (from UniProt Q12772)”: the binding result in assay [1] and in assay [2] was “binds” each time.

B1: V5-tagged ASPP2 (protein, UniProt Q13625 1-1128)
chain: T1 sequence
In the case of B1, the binding entry with HA-tagged SREBP-2 [3] and in the assay with HA-tagged SREBP-2 [4] was “binds” each time.
